A short description of this test: qHTS Assay to Find Inhibitors of Chronic Active B-Cell Receptor Signaling. To be noted: ABC-DLBCL IkBa-CBG/CBR reporter, luminescence ratio (green luciferase fused to IkBa over red control in TMD8 lymphoma cells), 4 h. A digest of the protocol: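 Doxycycline induced both beetle luciferases in TMD8 lymphoma cells; IKK-driven degradation limits the IkappaBalpha-fused green signal, while red luminescence normalises for cell number and nonspecific effects. Compounds tested up to 46 uM, 4 hrs.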
Background: Quantitative high-throughput screening tests each substance at several concentrations.

Where [1] appears, read: measured here: IkBa-CBG green luminescence.
[2] abbreviates: measured here: CBR red luminescence, cell number.

AC50 data for 64 compounds are collected here from PubChem BioAssay AID493014 (National Center for Advancing Translational Sciences (NCATS), 2011).

Usually AC50 stands for the concentration giving half of the maximal activity seen.

Structures are written as SMILES. This is one part of the list. Shown are side measurements of this screen, not its main read-out; they come without a call. Most of these compounds were active or inconclusive in the main read-out, so they are no random draw. Words in brackets tell the shape of the fitted curve; partial curves, single points and poor fits give uncertain potencies.

With `Cc1noc(C)c1COc1cccc(C(=O)Nc2ccc(Br)cc2F)c1`, the half-maximal activity concentration (AC50) under setting [1] is 8.2 µM [falling, single point]. Take `O=C(Nc1ccncc1)Nc1cccc(C(F)(F)F)c1`: the concentration at half-maximal activity (AC50) under setting [2] was 3.16 µM [rising, full curve, poor fit]. As for `Nc1nc(Nc2ccccc2)nc(N2CCCC2)c1[N+](=O)[O-]`, under setting [2], the half-maximal activity concentration (AC50) is 20 µM [rising, single point]. The same measure, in the same setting: with `COc1cccc(C(=O)NC2=NCCS2)c1OC` the figure was 0.231 µM [rising, full curve, poor fit]; with `COc1cccc(Cn2cc(/C=N/NC(=O)c3cc(O)cc(O)c3)c3ccccc32)c1`, 12.6 µM [falling, partial curve]. With `CCCCC(=O)OCC(=O)c1[nH]c(C)c(C(=O)OCC)c1C`, the concentration at half-maximal activity (AC50) under setting [2] was 0.13 µM [falling, full curve, poor fit]. Still for that read-out and setting: with `Cc1ccc(NS(=O)(=O)c2ccc(CCC(=O)N3CCOCC3)cc2)cc1` the figure was 29.1 µM [rising, single point]; with `CN(C)C(=O)N1CCC(C(=O)N2CCCC(C(=O)c3cccc4ccccc34)C2)CC1` (configuration not stated), 3.55 µM [rising, single point]. Turning to `O=C1CC[C@@H](CN(Cc2ccccc2)Cc2cn[nH]c2-c2cc3ccccc3o2)N1`, the half-maximal activity concentration (AC50) is, setting by setting: under setting [2], 12.6 µM [falling, partial curve]; under setting [1], 22.4 µM [rising, single point]. As for `CCCNC(=O)c1ccc(N2CCC3(CC2)CC(c2cccc(Br)c2)=NO3)c(NC(=O)c2ccc(Br)cc2)c1`, under setting [2], the half-maximal activity concentration (AC50) is 0.651 µM [rising, partial curve, poor fit]. On to `O=C(Nc1cc(Cl)cc(Cl)c1)c1ccc(F)c(S(=O)(=O)N2CCc3ccccc32)c1`, for which the concentration at half-maximal activity (AC50) under setting [2] is 5.62 µM [falling, single point]. The same measure, in the same setting: with `CC(CC(=O)N1CCc2ccccc21)c1ccccc1` (configuration not stated) the figure was 6.51 µM [rising, single point].

With `O=C(Cc1ccccc1)N(Cc1cccnc1)c1nc2c(F)cc(F)cc2s1`, the AC50 under setting [1] is 11.2 µM [rising, partial curve, poor fit]. In the case of `CN(/N=C/c1cc([N+](=O)[O-])ccc1O)c1ccccc1`, the concentration at half-maximal activity (AC50) under setting [2] is 2.06 µM [rising, partial curve]. In the case of `COc1ccc(CNC(=O)/C(C#N)=C/c2cccc(OC)c2OC)cc1`, the AC50 under setting [1] is 7.08 µM [falling, full curve]. Turning to `O=C(Cn1c2ccccc2c2nc3n(c(=O)c21)CCS3)Nc1ccccc1`, the concentration at half-maximal activity (AC50) under setting [2] was 1.78 µM [rising, full curve, poor fit]. `O=C(Nc1ccc(S(=O)(=O)N2CCc3ccccc32)cc1)c1ccc2c(c1)OCO2`: the AC50 by setting is: under setting [2], 14.6 µM [falling, partial curve, poor fit]; under setting [1], 25.9 µM [rising, partial curve, poor fit]. Take `COc1ccc(Cl)cc1NC(=O)CC1CCCC1`: under setting [2], the AC50 is 14.1 µM [rising, partial curve, poor fit]. Still for that read-out and setting: with `Cc1ccc(OCCSc2nc(NC(C)C)nc(NC(C)C)n2)cc1` the figure was 2.06 µM [falling, partial curve, poor fit]; with `C=CCn1c(NC(=O)c2ccc(C)cc2)c(C#N)sc1=N`, 3.55 µM [rising, partial curve, poor fit]. For `CCOC(=O)[C@H]1[C@H]2COc3ccc(C)cc3[C@@H]2N2C(=O)c3cc(Cl)ccc3NC(=O)[C@@]12C`, the AC50 under setting [2] was 29.1 µM [falling, single point]. Same read-out and setting: for `CC(=O)c1ccc(N2CCN(c3ccc(NC(=O)c4ccc(F)cc4)cc3C(=O)O)CC2)cc1` the value was 35.5 µM [falling, single point]; for `COc1ccc(CC(=O)NCCC2=CCCCC2)cc1`, 5.01 µM [rising, partial curve, poor fit]; for `Cc1cc(C)n(CCOc2ccc(Br)cc2)n1`, 17.8 µM [rising, single point]. On the same count and under the same terms, for `CCC(C)N1C(=O)S/C(=C/c2ccc(Sc3nc4ccccc4[nH]3)o2)C1=O` (configuration not stated) the value was 22.4 µM [falling, single point].

With `CC1(C)Cc2c(cnn2-c2ccccc2)C(=O)/C1=N\NC(=O)c1ccccc1`, the AC50 under setting [2] is 1.64 µM [rising, partial curve, poor fit].

Consider `COc1cccc(CNCC(O)COc2ccc(C(=O)c3ccccc3)cc2)c1` (configuration not stated), for which, under setting [2], the concentration at half-maximal activity (AC50) was 35.5 µM [falling, single point]. Regarding `Cc1ccc(/C=N/c2sc3c(c2C#N)CCCCC3)o1`, the AC50 under setting [2] is 35.5 µM [falling, single point]. `O=C1c2ccccc2C(O)N1Cc1ccccc1Cl` (configuration not stated): the half-maximal activity concentration (AC50) under setting [2] is 29.1 µM [falling, single point]. In the case of `COc1ccccc1CN1CCNC(=O)C1CC(=O)NCCCn1cccn1` (configuration not stated), the AC50 under setting [2] is 28.2 µM [rising, partial curve, poor fit]. Still for that read-out and setting: with `COc1ccc(OC)c(S(=O)(=O)NCC(=O)NC2CCCc3ccccc32)c1` (configuration not stated) the figure was 2.91 µM [rising, partial curve, poor fit]. The same measure, in the same setting: with `O=C(NC1CCCCCC1)c1cccnc1Sc1ccc(Cl)cc1` the figure was 1.03 µM [rising, full curve].

Regarding `Cc1cccc(NC(=O)CNC(=O)c2ccccc2Cl)n1`, under setting [2], the AC50 was 14.1 µM [falling, partial curve]. With `COC(=O)C(C(=O)OC)N1C(=O)CCC1=O`, the half-maximal activity concentration (AC50) under setting [2] was 0.651 µM [falling, full curve, poor fit]. Same read-out and setting: for `COc1cccc2cc(C(=O)NCCc3ccccc3)c(=O)oc12` the value was 15.8 µM [falling, partial curve, poor fit]. The same measure, in the same setting: for `COc1cc(OC)c(OC)cc1/C=C/c1nc2cc3ccccc3cc2c(=O)n1-c1ccc(F)cc1F` the value was 2.24 µM [falling, full curve]. For `Cc1ccc(S(=O)(=O)/N=C2/C=C(C3C(=O)CC(C)(C)CC3=O)C(=O)c3ccccc32)cc1`, the half-maximal activity concentration (AC50) is 18.4 µM [falling, single point] under setting [2] and 25.9 µM [rising, partial curve, poor fit] under setting [1].

Take `CCCCn1c(-c2csc3c2CCC(C)C3)n[nH]c1=S` (configuration not stated): under setting [2], the AC50 is 35.5 µM [rising, partial curve, poor fit]. For the compound `CCCCOC(=O)C1=C(C)Nc2ncnn2C1c1cccc(OC)c1` (configuration not stated), the half-maximal activity concentration (AC50) under setting [2] was 5.62 µM [rising, single point]. Same read-out and setting: for `Cc1ccc(C)c(OCC(=O)NCCNC(=O)COc2cc(C)ccc2C)c1` the value was 2.31 µM [rising, partial curve, poor fit]. The same measure, in the same setting: for `COC(=O)c1ccc(C(=O)OC)c(NC(=O)c2cnc3n(c2=O)CCS3)c1` the value was 32.6 µM [rising, partial curve, poor fit]; for `O=C1c2cccc(OCc3ccc(F)cc3)c2CCN1Cc1ccc(F)cc1`, 16.4 µM [falling, partial curve, poor fit]; for `CCN(CC)C(=O)c1cc(-c2ccc3c(c2)OCO3)on1`, 31.6 µM [falling, single point]. Still for that read-out and setting: for `COc1ccccc1CNC(=O)COC(=O)c1n[nH]c2ccccc12` the value was 6.51 µM [falling, partial curve, poor fit]; for `Cc1cc(C(=O)Nc2nc3c(s2)CCCC3)cs1`, 10 µM [falling, partial curve]; for `C=CCSc1nc(N)c(C(=O)Nc2ccccc2)cc1C#N`, 2.06 µM [falling, partial curve, poor fit].

As for `COc1ccc2cc(C(=O)/C=C/c3cc(OC)c(OC)c(OC)c3)ccc2c1`, the half-maximal activity concentration (AC50) under setting [2] is 10 µM [falling, partial curve, poor fit]. As to `c1cncc(-c2csc(-c3cccnc3)n2)c1`, under setting [2], the AC50 was 0.708 µM [rising, full curve, poor fit].

As to `Cc1nc2c(-c3ccccc3)cnn2c(N2CCOCC2)c1C`, the AC50 under setting [2] is 3.98 µM [rising, full curve, poor fit].

Take `CS(=O)(=O)Nc1cccc(C2=NN(C(=O)c3ccco3)C(c3cccs3)C2)c1` (configuration not stated): the concentration at half-maximal activity (AC50) under setting [2] is 11.2 µM [falling, single point].

With `COCCN1CCN(c2cc(-c3ccccc3)nc3cc(-c4cccc(F)c4)nn23)CC1`, the half-maximal activity concentration (AC50) under setting [2] was 29.1 µM [falling, single point]. Consider `COc1cccc(NC(=O)NCCCSC2CCCCC2)c1`, for which, under setting [2], the half-maximal activity concentration (AC50) was 35.5 µM [falling, single point]. With `O=C(COC(=O)C1CC(=O)N(c2nc(-c3ccccc3)cs2)C1)c1ccccc1` (configuration not stated), the half-maximal activity concentration (AC50) under setting [2] was 5.8 µM [falling, single point]. As to `COC(=O)c1cn(C(=O)c2ccccc2Cl)c2ccccc12`, the concentration at half-maximal activity (AC50) under setting [2] is 12.6 µM [rising, partial curve, poor fit].

For `CCN(C(=O)COC(=O)c1ccccc1SCC(=O)N1CCCC1)C1CCS(=O)(=O)C1` (configuration not stated), the AC50 under setting [2] was 14.6 µM [falling, partial curve, poor fit].

Consider `O=Cc1c(OCc2ccccc2)ccc2ccccc12`, for which the AC50 under setting [2] is 35.5 µM [falling, single point]. Same read-out and setting: for `NC(=O)c1cnn(-c2cccc(Cl)c2)c1N` the value was 2 µM [rising, full curve, poor fit]; for `COc1ccc(C(=O)/C=C/c2ccc(OC3CSC3)cc2)cc1`, 32.6 µM [falling, single point]. For `Clc1cccc2sc(N3CCCC3)nc12`, the AC50 under setting [2] is 3.66 µM [rising, full curve, poor fit]. Regarding `O=C(NCCCl)c1ccc(OCc2ccccc2)cc1Cl`, the half-maximal activity concentration (AC50) under setting [2] is 12.6 µM [falling, partial curve]. The same measure, in the same setting: for `COc1c(Cl)cccc1-c1cn2ccc(C)cc2n1` the value was 35.5 µM [falling, single point]; for `Cc1cc(Cl)ccc1Nc1ncccc1C(N)=O`, 7.31 µM [rising, partial curve, poor fit]; for `CCOc1ccc(N2CC(NC(=O)C(=O)c3c[nH]c4ccccc34)CC2=O)cc1` (configuration not stated), 12.6 µM [falling, partial curve, poor fit]. On the same count and under the same terms, with `CC1=CC2=NC(=O)/C(=C\c3cccn3CCOc3ccccc3C)C(=N)N2O1` the figure was 28.2 µM [falling, single point].
